Laboratory results from publication PMC12431657, “Discovery and mechanistic insights of dibenzoylmethane as a broad spectrum inhibitor of coronavirus” (PLOS Pathogens, 2025).
Where two headings read alike, the source gives them in different places. About 95 (3%) of roughly 3,300 compounds showed an effect of 50% or more. The list shows a part of the results.

System: HCoV-229E
Set-up: species or system Huh-7; HTS, protection from HCoV-229E induced cell death, luminescent cell viability (CellCounting-Lite 2.0), inhibition rate
Conditions: 24 h post infection, 1 h compound pre-incubation, 10 µM, inhibitor

Row | Compound | 229E Inhibition rate | 229E Inhibition rate (229E Inhibition rate, 24 h)
1 | CC(=O)O[C@H]1C[C@@]2(C)[C@@H](C[C@H]1O)C(=O)C=C1[C@@H]2CC[C@]2(C)[C@@H]([C@@](C)(O)[C@H](O)CCC(C)(C)O)CC[C@@]12O [2-O-Acetyl-20-hydroxyecdysone] | 0% | –
2 | CC1=C2[C@@H](OC1=O)[C@H](O)[C@]13[C@H]4C[C@@H](C(C)(C)C)[C@]15[C@@H](OC(=O)[C@@H]5O)O[C@@]23C(=O)O4 [Ginkgolide K] | 62% | –
3 | COc1ccc(C(=O)O[C@H]2[C@H](O[C@@H]3[C@@H](OC(C)=O)[C@H](O[C@H]4C[C@H]5[C@@H]6CC=C7C[C@@H](O)CC[C@]7(C)[C@H]6CC[C@]5(C)[C@@]4(O)[C@H](C)C(=O)CCC(C)C)OC[C@@H]3O)OC[C@@H](O)[C@@H]2O)cc1 [OSW-1] | 14.3% | –
4 | NCCS(=O)(=O)O [Taurine] | 10.7% | –
5 | O=C(O[C@@H]1Cc2c(O)cc(O)cc2O[C@H]1c1ccc(O)c(O)c1)c1cc(O)c(O)c(O)c1 [(-)-Catechin gallate] | 30% | –
6 | O=CNCC(=O)O [N-Formylglycine] | 18.6% | –
7 | C[C@@H]1O[C@@H](O[C@H]2[C@H](OC(=O)[C@]34CCC(C)(C)C[C@H]3C3=CC[C@@H]5[C@@]6(C)C[C@H](O)[C@H](O[C@@H]7O[C@H](CO)[C@@H](O)[C@H](O)[C@H]7O)[C@](CO)(C(=O)O)[C@@H]6CC[C@@]5(C)[C@]3(C)C[C@H]4O)OC[C@H](O)[C@@H]2O)[C@H](O)[C@H](O)[C@H]1O[C@@H]1OC[C@@H](O)[C@H](O[C@@H]2OC[C@](O)(CO)[C@H]2O)[C@H]1O [Platyconic acid A] | 30.2% | –
8 | COC(=O)[C@@H]1[C@H]2C[C@H]3c4[nH]c5ccccc5c4CCN3C[C@@H]2CC[C@@H]1O [Yohimbine] | – | 50.5%
9 | COc1ccc(-c2cc(=O)c3c(O)cc(O)cc3o2)cc1 [Acacetin] | 12.6% | –
10 | CC(=O)N[C@@H](CC(=O)N[C@@H](CCC(=O)O)C(=O)O)C(=O)O [Spaglumic Acid] | 11% | –
11 | O=c1c(O)cccc2cc(O)c(O)c(O)c12 [Purpurogallin] | 14.6% | –
12 | NC1CCCNC1=O (centres unmarked) [3-Amino-2-piperidinone] | 6.1% | –
13 | O=C(O)c1cc2ccccc2[nH]1 [Indole-2-carboxylic acid] | 12.3% | –
14 | Oc1cc(O)c2ccc(-c3ccc(O)c(O)c3)[o+]c2c1 [Luteolinidin (chloride)] | 44.9% | –
15 | O=c1c(O)c(-c2cc(O)c(O)c(O)c2)oc2cc(O)cc(O)c12 [Myricetin] | 0% | –
16 | OC[C@@H](O)[C@@H](O)[C@@H](O)[C@@H](O)CO [Allitol] | 7.5% | –
17 | Nc1nc(=O)c2[nH]c(=O)cnc2[nH]1 [Xanthopterin (hydrate)] | 48.2% | –
18 | COc1ccc(-c2cc(=O)c3c(OC)cc(OC)c(OC)c3o2)cc1 [6-Demethoxytangeretin] | 9.8% | –
19 | CC1CC[C@@]2(OC1)O[C@H]1C[C@H]3[C@@H]4CC=C5C[C@@H](O)C[C@@H](O)[C@]5(C)[C@H]4CC[C@]3(C)[C@H]1[C@@H]2C (stereo partly drawn) [25(R,S)-Ruscogenin] | 11.9% | –
20 | C/C=C1\C[C@@H](C)[C@](O)(CO)C(=O)OCC2=CCN3CC[C@@H](OC1=O)[C@@H]23 [Usaramine] | 10.5% | –
21 | C[C@H]1[C@@H](O)O[C@@H]2O[C@@]3(C)CC[C@H]4[C@H](C)CC[C@@H]1[C@@]24OO3 [Dihydroartemisinin] | 30.5% | –

3 structures already listed, sorted by molecular weight, low to high:
Row | Compound | 229E Inhibition rate | 229E Inhibition rate (229E Inhibition rate, 24 h)
6 | O=CNCC(=O)O [N-Formylglycine] | 18.6% | –
15 | O=c1c(O)c(-c2cc(O)c(O)c(O)c2)oc2cc(O)cc(O)c12 [Myricetin] | 0% | –
5 | O=C(O[C@@H]1Cc2c(O)cc(O)cc2O[C@H]1c1ccc(O)c(O)c1)c1cc(O)c(O)c(O)c1 [(-)-Catechin gallate] | 30% | –

Next compounds.

Row | Compound | 229E Inhibition rate | 229E Inhibition rate (229E Inhibition rate, 24 h)
22 | COc1ccc(-c2oc3c(CC=C(C)C)c(O[C@@H]4O[C@H](CO)[C@@H](O)[C@H](O)[C@H]4O)cc(O)c3c(=O)c2O[C@@H]2O[C@@H](C)[C@H](O)[C@@H](O)[C@H]2O)cc1 [Icariin] | 36.8% | –
23 | O=C(O)/C=C/c1c[nH]c2ccccc12 [trans-3-Indoleacrylic acid] | 7.1% | –
24 | COc1c(O[C@@H]2O[C@H](CO)[C@@H](O)[C@H](O)[C@H]2O)cc2c(c1O)C(=O)c1c(cc(C)c(O)c1OC)C2=O [Aurantio-obtusin β-D-glucoside] | 27.4% | –
25 | CCn1cc(C(=O)O)c(=O)c2ccc(C)nc21 [Nalidixic acid] | 0% | –
26 | CC(C)=C[C@H]1C[C@](C)(O)[C@@H]2[C@H]3CC[C@@H]4[C@@]5(C)CC[C@H](O[C@@H]6OC[C@H](O)[C@H](O[C@@H]7O[C@H](CO)[C@@H](O)[C@H](O)[C@H]7O)[C@H]6O[C@@H]6O[C@@H](CO)[C@H](O)[C@H]6O)C(C)(C)[C@@H]5CC[C@@]4(C)[C@@]34CO[C@@]2(C4)O1 [Bacopaside X] | 12.2% | –
27 | O=C(O)CCC(=O)OC[C@@H](NC(=O)C(Cl)Cl)[C@H](O)c1ccc([N+](=O)[O-])cc1 [Chloramphenicol succinate (sodium)] | 54% | –
28 | C[C@@H]1CCCC2=CC(=O)[C@@H]3[C@@H](C3(C)C)[C@]21C [Aristolone] | 29.3% | –
29 | O[C@H]1[C@H](O)[C@@H](O)[C@H](O)[C@@H](O)[C@@H]1O [Scyllo-Inositol] | 12.7% | –
30 | O=C(O)C#Cc1ccccc1 [Phenylpropiolic acid] | 44.9% | –
31 | CC(=O)[C@H]1CC[C@H]2[C@@H]3CC[C@H]4CC(=O)CC[C@]4(C)[C@H]3CC[C@]12C [5a-Pregnane-3,20-dione] | 29.5% | –
32 | C[C@]12CC[C@@H]3c4ccc(OS(=O)(=O)O)cc4CC[C@H]3[C@@H]1CCC2=O [Estropipate] | – | 9.1%
33 | Nc1ccc(C(=O)NCC(=O)O)cc1 [4-Aminohippuric acid] | 23.6% | –
34 | O=c1c(-c2ccc(O)cc2)coc2cc(O[C@@H]3O[C@H](CO)[C@@H](O)[C@H](O)[C@H]3O)cc(O)c12 [Genistin] | 0% | –
35 | COc1cc(C)ccc1O [Creosol] | 10.7% | –
36 | COc1ccc(OC)cc1 [1,4-Dimethoxybenzene] | 21% | –
37 | OC[C@H]1OC(O)[C@@H](O)[C@@H](O)[C@@H]1O (stereo partly drawn) [D-Mannose] | 10% | –
38 | COc1ccc(C[C@@H]2c3cc(Oc4cc(C[C@@H]5c6cc(O)c(OC)cc6CCN5C)ccc4O)c(OC)cc3CCN2C)cc1 [Isoliensinine] | 27.3% | –
39 | O=c1ccn([C@H]2C[C@H](O)[C@@H](COP(=O)(O)O)O2)c(=O)[nH]1 [2'-Deoxyuridine 5'-monophosphate (disodium)] | 12.5% | –
40 | CCCCCC/C=C\CCCCCCCCCc1cccc(O)c1C(=O)O [Ginkgolic acid C17:1] | 19.4% | –
41 | OC[C@H]1O[C@@H](Oc2ccc(O)cc2)[C@H](O)[C@@H](O)[C@@H]1O [Arbutin] | 9.2% | –
42 | C=C(C)[C@@H]1CC=C(CO)CC1 [Perillyl alcohol] | – | 36.2%

Row | Compound | 229E Inhibition rate | 229E Inhibition rate (229E Inhibition rate, 24 h)
43 | COc1cc(/C=C/C(=O)O)cc(OC)c1OC [3,4,5-Trimethoxycinnamic acid] | 11.8% | –
44 | C/C=C/c1cc(OC)c2c(c1)C(C)C(c1ccc(O)c(OC)c1)O2 (centres unmarked) [Dehydrodiisoeugenol] | 31.8% | –
45 | COC(=O)C1=CO[C@@H](O[C@@H]2O[C@H](CO)[C@@H](O)[C@H](O)[C@H]2O)[C@@H]2[C@@H](C)[C@@H](O)C[C@H]12 [Loganin] | 9.1% | –
46 | C[C@H](CCC(=O)NCCS(=O)(=O)O)[C@H]1CC[C@H]2[C@@H]3[C@H](O)C[C@@H]4C[C@H](O)CC[C@]4(C)[C@H]3CC[C@]12C [Taurochenodeoxycholic acid (sodium)] | – | 6.6%
47 | COc1ccc2c(c1OC)CN(C)c1c-2ccc2cc3c(cc12)OCO3 [Dihydrochelerythrine] | 29% | –
48 | O=C(O)C1CCN1 (centres unmarked) [Azetidine-2-carboxylic acid] | 9.8% | –
49 | CCC/C=C/C=O [Trans-2-Hexenal] | 10.5% | –
50 | CCCCC/C=C\CCCCCCc1cc(=O)c2ccccc2n1C [Evocarpine] | 12.8% | –
51 | NCCCN(CCCCNCCCNC(=O)CCc1ccc(O)c(O)c1)C(=O)CCc1ccc(O)c(O)c1 [Kukoamine B] | 16.1% | –
52 | CCCCC/C=C\C/C=C\CCCCCCCC(=O)OC [Methyl linoleate] | 40.2% | –
53 | CCCCCCCCCCCCCC(=O)OC [Methyl myristate] | 9.7% | –
54 | CC(=O)Oc1cccc2c1C(=O)c1c(OC(C)=O)cc(C(=O)O)cc1C2=O [Diacerein] | 6.1% | –
55 | C[N+](C)(C)CCOP(=O)(O)OP(=O)([O-])OC[C@H]1O[C@@H](n2ccc(N)nc2=O)[C@H](O)[C@@H]1O [Citicoline] | – | 8.9%
56 | C=CCCN1C[C@@H]2C[C@H](C1)c1cccc(=O)n1C2 [Rhombifoline] | 43.2% | –
57 | NCCOP(=O)(O)O [Phosphorylethanolamine] | 14.4% | –
58 | C=C(C)C(=O)O[C@H]1CC2=C[C@@H](C/C(C)=C/[C@H]3OC(=O)C(=C)[C@H]13)OC2=O [Deoxyelephantopin] | 6.2% | –
59 | COc1c(-c2ccccc2)oc2cc(O)cc(O)c2c1=O [3-O-Methylgalangin] | 14% | –
60 | CC(=O)OCC[N+](C)(C)C [Acetylcholine (iodide)] | – | 12%
61 | CC(=O)N[C@@H](CCC(=O)O)C(=O)O [N-Acetyl-L-glutamic acid] | 4% | –
62 | OC[C@H]1O[C@@H](Oc2cc3c(O)cc(O)cc3[o+]c2-c2cc(O)c(O)c(O)c2)[C@H](O)[C@@H](O)[C@@H]1O [Delphinidin 3-glucoside (chloride)] | 19.1% | –

Single values from the entries so far.
COc1c(-c2ccccc2)oc2cc(O)cc(O)c2c1=O [3-O-Methylgalangin] | 229E Inhibition rate: 14%
COc1cc(C)ccc1O [Creosol] | 229E Inhibition rate: 10.7%
